Test results published in article PMC11062894, “Protein-based bandpass filters for controlling cellular signaling with chemical inputs” (Nature Chemical Biology, 2023).
Several values for one entry are separate records, joined by “and”; a condition that tells them apart may be missing. Identical values can stand only once. This continues a long series; more values of the same kind are listed elsewhere.

Tested on: GEMS receptors with CBPvene (Bcl2–LD3 and Bcl2high variants), STAT3-driven SEAP in HEK293T cells
Experiment: GEMS SEAP reporter assay, CBPvene (Bcl2high, LD3-v and Bcl2-v variants) with venetoclax
Format: cell-based
[1] = Supp Fig 10a, Bcl2-v1, venetoclax 1 nM
[2] = Supp Fig 10a, Bcl2-v1, venetoclax 3.16 nM
[3] = Supp Fig 10a, Bcl2-v1, venetoclax 10 nM
[4] = Supp Fig 10a, Bcl2-v1, venetoclax 31.6 nM
[5] = Supp Fig 10a, Bcl2-v1, venetoclax 100 nM
[6] = Supp Fig 10a, Bcl2-v2, venetoclax 1 nM
[7] = Supp Fig 10a, Bcl2-v2, venetoclax 3.16 nM
[8] = Supp Fig 10a, Bcl2-v2, venetoclax 10 nM
[9] = Supp Fig 10a, Bcl2-v2, venetoclax 31.6 nM
[10] = Supp Fig 10a, Bcl2-v2, venetoclax 100 nM
[11] = Supp Fig 10a, Bcl2-v3, venetoclax 1 nM
[12] = Supp Fig 10a, Bcl2-v3, venetoclax 3.16 nM
[13] = Supp Fig 10a, Bcl2-v3, venetoclax 10 nM
[14] = Supp Fig 10a, Bcl2-v3, venetoclax 31.6 nM
[15] = Supp Fig 10a, Bcl2-v3, venetoclax 100 nM
[16] = Supp Fig 10a, Bcl2-v4, venetoclax 1 nM
[17] = Supp Fig 10a, Bcl2-v4, venetoclax 3.16 nM
[18] = Supp Fig 10a, Bcl2-v4, venetoclax 10 nM
[19] = Supp Fig 10a, Bcl2-v4, venetoclax 31.6 nM
[20] = Supp Fig 10a, Bcl2-v4, venetoclax 100 nM
[21] = Supp Fig 10a, Bcl2-v5, venetoclax 1 nM
[22] = Supp Fig 10a, Bcl2-v5, venetoclax 3.16 nM
[23] = Supp Fig 10a, Bcl2-v5, venetoclax 10 nM
[24] = Supp Fig 10a, Bcl2-v5, venetoclax 31.6 nM
[25] = Supp Fig 10a, Bcl2-v5, venetoclax 100 nM
[26] = Supp Fig 10a, Bcl2-v6, venetoclax 1 nM
[27] = Supp Fig 10a, Bcl2-v6, venetoclax 3.16 nM
[28] = Supp Fig 10a, Bcl2-v6, venetoclax 10 nM
[29] = Supp Fig 10a, Bcl2-v6, venetoclax 31.6 nM
[30] = Supp Fig 10a, Bcl2-v6, venetoclax 100 nM
[31] = Supp Fig 10a, Bcl2, venetoclax 1 nM
[32] = Supp Fig 10a, Bcl2, venetoclax 3.16 nM
[33] = Supp Fig 10a, Bcl2, venetoclax 10 nM
[34] = Supp Fig 10a, Bcl2, venetoclax 31.6 nM
[35] = Supp Fig 10a, Bcl2, venetoclax 100 nM
[36] = Supp Fig 10c, Bcl2-v1, venetoclax 10 nM
[37] = Supp Fig 10c, Bcl2-v1, venetoclax 31.6 nM
[38] = Supp Fig 10c, Bcl2-v1, venetoclax 100 nM
[39] = Supp Fig 10c, Bcl2-v1, venetoclax 316 nM
[40] = Supp Fig 10c, Bcl2-v1, venetoclax 1000 nM
[41] = Supp Fig 10c, Bcl2-v1, venetoclax 3160 nM
[42] = Supp Fig 10c, Bcl2-v1, venetoclax 10000 nM
[43] = Supp Fig 10c, Bcl2-v2, venetoclax 10 nM
[44] = Supp Fig 10c, Bcl2-v2, venetoclax 31.6 nM
[45] = Supp Fig 10c, Bcl2-v2, venetoclax 100 nM
[46] = Supp Fig 10c, Bcl2-v2, venetoclax 316 nM
[47] = Supp Fig 10c, Bcl2-v2, venetoclax 1000 nM
[48] = Supp Fig 10c, Bcl2-v2, venetoclax 3160 nM
[49] = Supp Fig 10c, Bcl2-v2, venetoclax 10000 nM
[50] = Supp Fig 10c, Bcl2-v3, venetoclax 10 nM
[51] = Supp Fig 10c, Bcl2-v3, venetoclax 31.6 nM

SMILES: CC1(C)CCC(CN2CCN(c3ccc(C(=O)NS(=O)(=O)c4ccc(NCC5CCOCC5)c([N+](=O)[O-])c4)c(Oc4cnc5[nH]ccc5c4)c3)CC2)=C(c2ccc(Cl)cc2)C1 [Venetoclax]
- Raw data Figure 5c (CBPVene-v5, Venetoclax 100 nM): 341.722 and 335.341
- Raw data Figure 5f (CBPVene-v5, Venetoclax 100 nM): 106.556 and 113.538
- Raw data Figure 5f (CBPVene-v5-Bcl2v2, Venetoclax 100 nM): 149.797 and 156.012 and 191.601
- SEAP [1]: 21.6044
- SEAP normalized (max=100) [1]: 92.7765
- SEAP [2]: 23.2865
- SEAP normalized (max=100) [2]: 100
- SEAP [3]: 16.0345
- SEAP normalized (max=100) [3]: 68.8573
- SEAP [4]: 18.9926
- SEAP normalized (max=100) [4]: 81.5605
- SEAP [5]: 20.3514
- SEAP normalized (max=100) [5]: 87.3956
- SEAP [6]: 10.2874
- SEAP normalized (max=100) [6]: 30.7964
- SEAP [7]: 13.9068
- SEAP normalized (max=100) [7]: 41.6315
- SEAP [8]: 14.5592
- SEAP normalized (max=100) [8]: 43.5847
- SEAP [9]: 22.7645
- SEAP normalized (max=100) [9]: 68.148
- SEAP [10]: 24.4264
- SEAP normalized (max=100) [10]: 73.1231
- SEAP [11]: 27.6943
- SEAP normalized (max=100) [11]: 78.7749
- SEAP [12]: 29.5268
- SEAP normalized (max=100) [12]: 83.9873
- SEAP [13]: 31.648
- SEAP normalized (max=100) [13]: 90.0208
- SEAP [14]: 35.1563
- SEAP normalized (max=100) [14]: 100
- SEAP [15]: 29.621
- SEAP normalized (max=100) [15]: 84.2551
- SEAP [16]: 41.8831
- SEAP normalized (max=100) [16]: 91.7378
- SEAP [17]: 41.0528
- SEAP normalized (max=100) [17]: 89.9193
- SEAP [18]: 37.2435
- SEAP normalized (max=100) [18]: 81.5757
- SEAP [19]: 36.4556
- SEAP normalized (max=100) [19]: 79.8498
- SEAP [20]: 22.5432
- SEAP normalized (max=100) [20]: 49.3771
- SEAP [21]: 39.1594
- SEAP normalized (max=100) [21]: 100
- SEAP [22]: 39.145
- SEAP normalized (max=100) [22]: 99.9632
- SEAP [23]: 24.5911
- SEAP normalized (max=100) [23]: 62.7975
- SEAP [24]: 31.7054
- SEAP normalized (max=100) [24]: 80.9649
- SEAP [25]: 21.977
- SEAP normalized (max=100) [25]: 56.1219
- SEAP [26]: 35.1249
- SEAP normalized (max=100) [26]: 83.9201
- SEAP [27]: 33.3789
- SEAP normalized (max=100) [27]: 79.7485
- SEAP [28]: 30.0268
- SEAP normalized (max=100) [28]: 71.7397
- SEAP [29]: 32.915
- SEAP normalized (max=100) [29]: 78.6401
- SEAP [30]: 29.8264
- SEAP normalized (max=100) [30]: 71.261
- SEAP [31]: 29.2584
- SEAP normalized (max=100) [31]: 14.2012
- SEAP [32]: 31.4339
- SEAP normalized (max=100) [32]: 15.2572
- SEAP [33]: 33.1302
- SEAP normalized (max=100) [33]: 16.0805
- SEAP [34]: 57.2981
- SEAP normalized (max=100) [34]: 27.811
- SEAP [35]: 119.065
- SEAP normalized (max=100) [35]: 57.7909
- SEAP [36]: 21.4847
- SEAP normalized (max=100) [36]: 82.2419
- SEAP [37]: 15.0338
- SEAP normalized (max=100) [37]: 57.5484
- SEAP [38]: 15.6772
- SEAP normalized (max=100) [38]: 60.0112
- SEAP [39]: 10.7127
- SEAP normalized (max=100) [39]: 41.0075
- SEAP [40]: 9.643
- SEAP normalized (max=100) [40]: 36.913
- SEAP [41]: 7.627
- SEAP normalized (max=100) [41]: 29.1973
- SEAP [42]: 5.427
- SEAP normalized (max=100) [42]: 20.776
- SEAP [43]: 52.1135
- SEAP normalized (max=100) [43]: 47.0093
- SEAP [44]: 62.3409
- SEAP normalized (max=100) [44]: 56.235
- SEAP [45]: 110.858
- SEAP normalized (max=100) [45]: 100
- SEAP [46]: 52.4245
- SEAP normalized (max=100) [46]: 47.2898
- SEAP [47]: 36.1104
- SEAP normalized (max=100) [47]: 32.5736
- SEAP [48]: 6.785
- SEAP normalized (max=100) [48]: 6.121
- SEAP [49]: 7.401
- SEAP normalized (max=100) [49]: 6.676
- SEAP [50]: 37.2138
- SEAP normalized (max=100) [50]: 100
- SEAP [51]: 35.7018
- SEAP normalized (max=100) [51]: 95.9371
